The source of these data is doi:10.1101/2022.07.26.501514.

No constants are given. Whether binding was seen depends on the method and setting. Some results given as binding are weak or reduced against the parent protein; the word gives no strength. For part of these data: Tags and fused reporters may be left off the sequences shown.

Assay [1] addresses T1, Atg18 wildtype (Autophagy-related protein 18, Saccharomyces cerevisiae) (Saccharomyces cerevisiae), P43601.
T1 chain: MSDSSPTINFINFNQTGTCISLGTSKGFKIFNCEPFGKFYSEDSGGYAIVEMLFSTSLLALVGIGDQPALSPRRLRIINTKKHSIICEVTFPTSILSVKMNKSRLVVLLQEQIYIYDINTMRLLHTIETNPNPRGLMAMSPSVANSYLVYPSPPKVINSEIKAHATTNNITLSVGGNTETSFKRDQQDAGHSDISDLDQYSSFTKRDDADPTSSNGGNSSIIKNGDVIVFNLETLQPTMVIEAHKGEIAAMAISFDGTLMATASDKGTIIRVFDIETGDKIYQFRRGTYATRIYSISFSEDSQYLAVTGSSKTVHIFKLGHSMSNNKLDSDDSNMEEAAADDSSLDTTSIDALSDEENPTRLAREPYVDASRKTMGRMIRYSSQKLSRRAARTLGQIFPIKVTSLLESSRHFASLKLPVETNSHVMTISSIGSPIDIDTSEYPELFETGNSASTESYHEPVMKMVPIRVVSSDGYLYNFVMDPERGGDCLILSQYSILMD
Briefly: negative stain EM. As to conditions: remark: other sources report otherwise.

Assay [2] deals with T1, Atg18 wildtype (Autophagy-related …). Briefly: cryo-EM structure. As to conditions: remark: other sources report otherwise.
For assay [3] the target is unchanged. Briefly: electron cryo-tomography with subtomogram averaging. As to conditions: remark: other sources report otherwise.
The target is the same in assay [4]. Briefly: co-sedimentation. As to conditions: remark: other sources report otherwise.
The target of assay [5] is Atg18-FGGG (FRRG motif changed to FGGG) (Saccharomyces cerevisiae) (UniProt P43601). Briefly: negative stain EM.
The target is the same in assay [6]. Briefly: co-sedimentation.

B1: Atg18 wildtype (Autophagy-related protein 18, Saccharomyces cerevisiae), P43601 1-500 (natural protein)
chain: MSDSSPTINFINFNQTGTCISLGTSKGFKIFNCEPFGKFYSEDSGGYAIVEMLFSTSLLALVGIGDQPALSPRRLRIINTKKHSIICEVTFPTSILSVKMNKSRLVVLLQEQIYIYDINTMRLLHTIETNPNPRGLMAMSPSVANSYLVYPSPPKVINSEIKAHATTNNITLSVGGNTETSFKRDQQDAGHSDISDLDQYSSFTKRDDADPTSSNGGNSSIIKNGDVIVFNLETLQPTMVIEAHKGEIAAMAISFDGTLMATASDKGTIIRVFDIETGDKIYQFRRGTYATRIYSISFSEDSQYLAVTGSSKTVHIFKLGHSMSNNKLDSDDSNMEEAAADDSSLDTTSIDALSDEENPTRLAREPYVDASRKTMGRMIRYSSQKLSRRAARTLGQIFPIKVTSLLESSRHFASLKLPVETNSHVMTISSIGSPIDIDTSEYPELFETGNSASTESYHEPVMKMVPIRVVSSDGYLYNFVMDPERGGDCLILSQYSILMD
As for B1, the binding result in assay [1], in assay [2], in assay [3] and in assay [4] was “binds” throughout.

B2: Atg18-FGGG (FRRG motif changed to FGGG) (protein, UniProt P43601 1-500)
chain: MSDSSPTINFINFNQTGTCISLGTSKGFKIFNCEPFGKFYSEDSGGYAIVEMLFSTSLLALVGIGDQPALSPRRLRIINTKKHSIICEVTFPTSILSVKMNKSRLVVLLQEQIYIYDINTMRLLHTIETNPNPRGLMAMSPSVANSYLVYPSPPKVINSEIKAHATTNNITLSVGGNTETSFKRDQQDAGHSDISDLDQYSSFTKRDDADPTSSNGGNSSIIKNGDVIVFNLETLQPTMVIEAHKGEIAAMAISFDGTLMATASDKGTIIRVFDIETGDKIYQFGGGTYATRIYSISFSEDSQYLAVTGSSKTVHIFKLGHSMSNNKLDSDDSNMEEAAADDSSLDTTSIDALSDEENPTRLAREPYVDASRKTMGRMIRYSSQKLSRRAARTLGQIFPIKVTSLLESSRHFASLKLPVETNSHVMTISSIGSPIDIDTSEYPELFETGNSASTESYHEPVMKMVPIRVVSSDGYLYNFVMDPERGGDCLILSQYSILMD
B2: the binding entry is on record as “no binding” in assay [5] and “no binding (tested: 100 uM)” in assay [6].
